Laboratory results: PubChem BioAssay AID1259283 (Sanger Institute, 2017)
Aim: 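Kinases whose silencing adds to targeted drugs in killing colon cancer cells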 (primary screen). System: HT115 colorectal cancer cells. Knock-down reagent: siRNA pool against human genes. Treatment: anchor drug given one day after siRNA: BYL719 at 1 µM, cetuximab at 5 µg/ml, trametinib at 10 nM, or DMSO vehicle alone. Read-out: 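Viability normalised to non-targeting pool #2 wells and averaged over replicates, robust z-score against control wells, and a synergy score for each of three drugs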. Scale: robust z-score, knock-down alone: higher = more viable cells after knock-down; viability, DMSO vs non-targeting control: higher = more viable cells; synergy score with BYL719: higher = stronger synergy with drug (synthetic lethal). Active means: 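a gene counts as essential when its robust z-score with knock-down alone is below -3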. Meaning of the calls: active = essential (z below -3, no drug); inactive = no change without drug.
The deposit covers 794 reagents; shown is an unselected part. In the full data, 14 (1.8%) are marked active. 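Calls reflect only viability loss without drug; drug synergy does not enter the call.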 Entries without a mark were called inactive. No viability above 1 is reported: the scale is capped. Not all columns of the deposit are shown. No sequences are given here. Not given: the amount of reagent, the time to read-out.

target | robust z-score, knock-down alone | viability, DMSO vs non-targeting control (fraction of control) | synergy score with BYL719
CDKL4 (cyclin dependent kinase like 4) | -1.76 | 0.764 | 0.0436
GK2 (glycerol kinase 2) | 0.74 | 0.995 | 0.039
CAMK2G (calcium/calmodulin dependent protein kinase II gamma) | 0.789 | 1 | 0.00753
GUCY2F (guanylate cyclase 2F, retinal) | 0.397 | 0.964 | -0.0412
MYH10 (myosin heavy chain 10) | -0.951 | 0.839 | -0.117
PASK (PAS domain containing serine/threonine kinase) | -0.731 | 0.86 | -0.0106
PRPS1 (phosphoribosyl pyrophosphate synthetase 1) | 0.789 | 1 | -0.0224
NAGK (N-acetylglucosamine kinase) | -0.835 | 0.85 | -0.122
CHEK1 (checkpoint kinase 1) | 0.375 | 0.962 | 0.181
SRPK3 (SRSF protein kinase 3) | -0.306 | 0.899 | -0.0198
STK32C (serine/threonine kinase 32C) | 0.789 | 1 | 0.00617
ULK2 (unc-51 like autophagy activating kinase 2) | -0.367 | 0.893 | 0.0929
TPK1 (thiamin pyrophosphokinase 1) | -1.1 | 0.825 | 0.0654
DGKI (diacylglycerol kinase iota) | 0.593 | 0.982 | 0.0848
MAPKAPK5 (MAPK activated protein kinase 5) | -0.851 | 0.848 | -0.0533
NRK (Nik related kinase) | 0.486 | 0.972 | -0.0159
PKLR (pyruvate kinase L/R) | 0.239 | 0.949 | 0.0869
EFNA4 (ephrin A4) | 0.712 | 0.993 | -0.0294
TNIK (TRAF2 and NCK interacting kinase) | -0.276 | 0.902 | 0.0178
SRP72 (signal recognition particle 72) | -0.446 | 0.886 | -0.0341
TAB1 (TGF-beta activated kinase 1 (MAP3K7) binding protein 1) | 0.789 | 1 | -0.0224
MYLK4 (myosin light chain kinase family member 4) | 0.0923 | 0.936 | -0.0465
PKN3 (protein kinase N3) | 0.789 | 1 | 0.000563
EFNB3 (ephrin B3) | -1.68 | 0.771 | -0.0703
BUB1B (BUB1 mitotic checkpoint serine/threonine kinase B) | -0.0376 | 0.924 | 0.124
WIPF1 (WAS/WASL interacting protein family member 1) | -2.49 | 0.697 | 0.00999
POMK (protein O-mannose kinase) | 0.72 | 0.994 | 0.00596
HK1 (hexokinase 1) | 0.789 | 1 | -0.0224
ATP23 | 0.789 | 1 | 0.032
KCNH2 (potassium voltage-gated channel subfamily H member 2) | -0.257 | 0.903 | 0.0751
NME3 (NME/NM23 nucleoside diphosphate kinase 3) | 0.789 | 1 | 0.164
ADK (adenosine kinase) | 0.789 | 1 | -0.0224
PRKY (protein kinase Y-linked (pseudogene)) | -0.252 | 0.904 | -0.0836
FLT4 (fms related receptor tyrosine kinase 4) | -0.616 | 0.87 | 0.0669

Quoted from the entries so far for reference:
target | robust z-score, knock-down alone | viability, DMSO vs non-targeting control (fraction of control) | synergy score with BYL719
NME3 (NME/NM23 nucleoside diphosphate kinase 3) | 0.789 | 1 | 0.164
ADK (adenosine kinase) | 0.789 | 1 | -0.0224
PRKY (protein kinase Y-linked (pseudogene)) | -0.252 | 0.904 | -0.0836
